{"source": "PubChem BioAssay AID493014", "about": "(National Center for Advancing Translational Sciences (NCATS), 2011)", "note": "Among all 340,000 compounds or so, about 170 (0.05%) were called active. Inconclusive means that the source gave no clear call. Such entries were picked first, then a sample of the others. Calls come from the whole dose curve; as a rule, active = well fitted inhibition curve with a large enough effect in the signal ratio, with a control signal flat (not every such curve was filed as active); inconclusive = small, poorly fitted or top-dose-only effect, or effect the other way, or a change in a side signal; inactive = flat fitted curve, though single readings scatter; the % refers to the signal ratio. Potencies of inconclusive entries are doubtful fits and often do not repeat. Potency is the fitted concentration of half-maximal effect.", "data": [{"experiment": "qHTS Assay to Find Inhibitors of Chronic Active B-Cell Receptor Signaling;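 for activity change, negative = inhibition: plate controls were basal doxycycline-induced cells for no effect and cells given 10 µM MG132 for full effect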", "conditions": "ABC-DLBCL IkBa-CBG/CBR reporter, luminescence ratio (green luciferase fused to IkBa over red control in TMD8 lymphoma cells), 4 h; activity change, negative = inhibition: at 46.1 µM (top of the series)", "summary_of_the_method": "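Compounds up to 46 uM were incubated four hours with TMD8 cells whose green CBG68 luciferase is fused to IkappaBalpha; red CBR luminescence normalised the signal, and concentration-effect curves were fitted to fusion, red and ratio data.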", "values": [{"smiles": "Cc1cc2nc(Sc3c([N+](=O)[O-])nc(C)n3Cc3ccccc3)[nH]c2cc1C", "activity change, negative = inhibition": "inconclusive: 23.2%"}, {"smiles": "COc1ccccc1/C=N/NC(=O)c1ccccc1Cl", "Potency": "inconclusive: 14.1 µM [falling, single point]"}, {"smiles": "Cc1ccc(/C=N/Nc2nc3ccccc3[nH]2)s1", "Potency": "inconclusive: 6.51 µM [falling, single point]"}, {"smiles": "O=C(N/N=C/c1cccc(F)c1)c1c(O)c2c([nH]c1=O)CCCC2", "Potency": "inconclusive: 0.291 µM [falling, full curve, poor fit]"}, {"smiles": "O=C(NC(=S)NCc1ccncc1)c1ccccc1", "activity change, negative = inhibition": "inconclusive: -7.82%"}, {"smiles": "O=C(CN1C(=O)COc2ccc(Cl)cc21)NC1CC1", "activity change, negative = inhibition": "inactive"}, {"smiles": "COC(=O)c1cc2oc3ccccc3c2n1CC(=O)N1CCCc2ccccc21", "activity change, negative = inhibition": "inconclusive: -21.5%"}, {"smiles": "COc1cccc(C(N)CC(=O)O)c1", "note": "(stereo unspecified)", "activity change, negative = inhibition": "inconclusive: 2.51%"}, {"smiles": "Cc1cc(O)cc2c(=O)c3ccccc3sc12", "activity change, negative = inhibition": "inactive"}, {"smiles": "Cc1ccc(NC(=O)C(C)OC(=O)c2ccc(NC(=O)CC#N)cc2)cc1S(=O)(=O)N1CCOCC1", "note": "(stereo unspecified)", "activity change, negative = inhibition": "inactive"}, {"smiles": "O=C(NCc1ccccc1)c1ccc2nc(-c3ccco3)c(-c3ccco3)nc2c1", "Potency": "inconclusive: 2.06 µM [rising, full curve, poor fit]"}, {"smiles": "CC1(c2ccc([N+](=O)[O-])cc2)Nc2ccccc2S1", "note": "(stereo unspecified)", "activity change, negative = inhibition": "inconclusive: -24.6%"}, {"smiles": "N=c1c(C(=O)NCc2ccc(F)cc2)cc2c(=O)n3ccccc3nc2n1Cc1cccnc1", "activity change, negative = inhibition": "inconclusive: 3.06%"}, {"smiles": "CCOc1ccc(CCNC(=O)c2ccc3c(c2)NC(=O)C2CCCN32)cc1OCC", "note": "(stereo unspecified)", "activity change, negative = inhibition": "inactive"}, {"smiles": "COc1cccc(N(C(=O)c2ccco2)c2nc(-c3sc(NC(=O)c4ccco4)nc3C)cs2)c1", "Potency": "inconclusive: 2.24 µM [falling, partial curve, poor fit]"}, {"smiles": "COc1ccc(C(=O)Nc2ccc(N3CCCC3)cc2)cc1Br", "Potency": "inconclusive: 8.91 µM [falling, partial curve, poor fit]"}, {"smiles": "CCOc1ccc(CCNC(=O)c2ccc3nc(N4CCOCC4)sc3c2)cc1OCC", "activity change, negative = inhibition": "inconclusive: -0.533%"}, {"smiles": "Cc1ccc2nc(C)c(C(=O)N/N=C/c3cccs3)n2c1", "activity change, negative = inhibition": "inconclusive: -2.55%"}, {"smiles": "CCN(CC)S(=O)(=O)c1ccc(OC)c(NS(=O)(=O)c2ccc(F)cc2)c1", "activity change, negative = inhibition": "inconclusive: 2.36%"}, {"smiles": "Cc1cc(NC(=O)NC(=O)c2ccccc2)no1", "activity change, negative = inhibition": "inconclusive: -10.6%"}, {"smiles": "Cc1cc(C)cc(N(C(=O)CNS(=O)(=O)c2ccccc2)C(C(=O)NCc2ccccc2)c2ccc(C)o2)c1", "note": "(stereo unspecified)", "activity change, negative = inhibition": "inconclusive: 1.98%"}, {"smiles": "O=C(NNC(=O)c1cncc(Br)c1)c1ccncc1", "Potency": "inconclusive: 20.6 µM [falling, single point]"}, {"smiles": "COc1cccc(C(C[N+](=O)[O-])c2c(C)[nH]n(-c3ccccc3)c2=O)c1", "note": "(stereo unspecified)", "activity change, negative = inhibition": "inconclusive: -11.9%"}, {"smiles": "CCCC1CC(C)(C(=O)CSc2n[nH]c(-c3ccccc3)n2)OC1=O", "note": "(stereo unspecified)", "activity change, negative = inhibition": "inconclusive: 11.3%"}, {"smiles": "Cn1c(=O)c(C(=O)NC2CCCCCCC2)c(O)c2ccccc21", "activity change, negative = inhibition": "inactive"}, {"smiles": "CCOC(=O)/C(C#N)=C1/SC(CCO)C(=O)N1c1ccccc1", "note": "(stereo unspecified)", "Potency": "inconclusive: 25.1 µM [falling, single point]"}, {"smiles": "Cc1c(CCC(=O)NCCC(=O)O)c(=O)oc2c(C)c3oc4c(c3cc12)CCCC4", "Potency": "inconclusive: 12.6 µM [falling, partial curve]"}, {"smiles": "C=CCn1c(SCc2ccc(C(=O)Nc3ccccc3)cc2)nnc1-c1ccccc1", "activity change, negative = inhibition": "inconclusive: -2.32%"}, {"smiles": "CC(C)(C)OC(=O)N[C@H](/C=C/c1ccccc1)C(=O)OC(C)(C)C", "activity change, negative = inhibition": "inconclusive: 3.71%"}, {"smiles": "Cc1nnc(SCC(=O)Nc2cccc(S(N)(=O)=O)c2)n1-c1ccccc1", "activity change, negative = inhibition": "inactive"}, {"smiles": "O=C(/C=C/Nc1ccc(F)cc1)c1ccco1", "Potency": "inconclusive: 29.1 µM [falling, single point]"}, {"smiles": "CC(C)C[C@H](NC(=O)OC(C)(C)C)c1nnc(SCc2ccccc2)o1", "activity change, negative = inhibition": "inactive"}, {"smiles": "Cc1ccc(-c2noc(CSc3nnc(-c4ccccc4)n3C)n2)cc1", "activity change, negative = inhibition": "inconclusive: 2.75%"}, {"smiles": "CC(C)Cc1cc(C(=O)Nc2ccc(Br)cc2)no1", "Potency": "inconclusive: 15.8 µM [falling, partial curve, poor fit]"}, {"smiles": "Nn1c(C2CCCCC2)nc2ccccc2c1=O", "activity change, negative = inhibition": "inconclusive: 4.58%"}, {"smiles": "CCOC(=O)C1CCCN(C(=O)c2sc3nc(C)nc(N(CC)CC)c3c2C)C1", "note": "(stereo unspecified)", "activity change, negative = inhibition": "inconclusive: 15.2%"}, {"smiles": "O=C(NC1CCCCC1)c1cnn2c(C(F)(F)F)cc(-c3ccco3)nc12", "activity change, negative = inhibition": "inconclusive: 5.75%"}, {"smiles": "CC(C)N(Cc1ccc(F)cc1)C(=O)c1cc2ccccc2oc1=O", "activity change, negative = inhibition": "inconclusive: 3.81%"}, {"smiles": "CCCc1cc(=O)oc2cc(C)cc(OCC(=O)Nc3ccc(CN4CCOCC4)cc3)c12", "activity change, negative = inhibition": "inconclusive: 3.68%"}, {"smiles": "CC1CCN(S(=O)(=O)c2ccc(C(=O)N3CCCCC3C(=O)O)cc2)CC1", "note": "(stereo unspecified)", "activity change, negative = inhibition": "inconclusive: 0.864%"}, {"smiles": "Cc1ccc2cccc(NC(=O)c3ccc(Br)o3)c2n1", "activity change, negative = inhibition": "inconclusive: 8.37%"}, {"smiles": "CN(C)S(=O)(=O)c1cccc(NC(=O)c2ccc3nccnc3c2)c1", "Potency": "inconclusive: 0.224 µM [rising, full curve, poor fit]"}, {"smiles": "CCCCOc1ccc(-c2ncc(Cl)cn2)cc1", "activity change, negative = inhibition": "inconclusive: 10.3%"}, {"smiles": "COc1ccc(N2C(=O)c3ccccc3NC23CCCCC3)cc1", "activity change, negative = inhibition": "inconclusive: -12.7%"}, {"smiles": "Cc1[nH]n(-c2ccccc2)c(=O)c1C(=O)Nc1ccccc1", "Potency": "inconclusive: 35.5 µM [rising, single point]"}, {"smiles": "CC(=O)NC(=C(Cl)Cl)S(=O)(=O)c1ccccc1", "activity change, negative = inhibition": "inconclusive: -15.2%"}, {"smiles": "O=S(=O)(c1ccccc1)c1nc(-c2cccs2)oc1NCc1cccnc1", "activity change, negative = inhibition": "inconclusive: -6.01%"}, {"smiles": "COc1ccc(CCNc2oc(-c3ccc(OC)c(OC)c3)nc2P(=O)(OC)OC)cc1OC", "Potency": "inconclusive: 16.4 µM [falling, partial curve]"}, {"smiles": "COc1ccc(C(=O)Nc2cccc(NC(=O)c3ccc(OC)c(OC)c3)n2)cc1OC", "activity change, negative = inhibition": "inconclusive: 7.41%"}, {"smiles": "COc1ccc(-n2nc3cc(C)c(N)cc3n2)cc1Cl", "activity change, negative = inhibition": "inconclusive: -3.34%"}, {"smiles": "COc1ccc(NC(=O)/C(C#N)=C\\c2cc(C)n(-c3ccc(Oc4ccc([N+](=O)[O-])cn4)cc3)c2C)cc1", "activity change, negative = inhibition": "inconclusive: -2.43%"}, {"smiles": "CCOc1ccc2ccccc2c1C(=O)N[C@@H]1C(=O)N2[C@@H]1SC(C)(C)[C@@H]2C(=O)O", "activity change, negative = inhibition": "inactive"}, {"smiles": "Cn1cccc1/C=N/NC(=O)Cc1ccccc1", "activity change, negative = inhibition": "inactive"}, {"smiles": "Nc1nc(Br)c2c(F)cccc2c1-c1ccc(F)cc1", "activity change, negative = inhibition": "inconclusive: 2.7%"}, {"smiles": "CC(=O)N1c2ccccc2C2(O)N=C(C)SC12", "note": "(stereo unspecified)", "activity change, negative = inhibition": "inconclusive: -2.6%"}, {"smiles": "COC(=O)CCC(=O)Nc1ccc(S(=O)(=O)N2CCCCCC2)cc1", "activity change, negative = inhibition": "inconclusive: -11.7%"}, {"smiles": "COc1ccc(-n2c(SCc3cccnc3)nc3c(c2=O)SCC3)cc1OC", "activity change, negative = inhibition": "inconclusive: -1.39%"}, {"smiles": "COc1cc2c(cc1OC)C(C)N(C(=O)c1cc3c(s1)-c1ccccc1OC3)CC2", "note": "(stereo unspecified)", "Potency": "inconclusive: 32.6 µM [falling, partial curve, poor fit]"}, {"smiles": "Cc1cc(=O)oc2cc(Oc3ccc([N+](=O)[O-])cc3[N+](=O)[O-])ccc12", "activity change, negative = inhibition": "inactive"}, {"smiles": "O=C(Nc1ccc2oc(=O)ccc2c1)c1cc([N+](=O)[O-])ccc1N1CCOCC1", "activity change, negative = inhibition": "inconclusive: -15.5%"}, {"smiles": "Cc1cc(O)c(C2=Nc3ccccc3SC(c3ccc(Cl)cc3)C2)c(=O)o1", "note": "(stereo unspecified)", "activity change, negative = inhibition": "inconclusive: -11.2%"}, {"smiles": "C[C@H](CO)N1C[C@H](C)[C@@H](CN(C)Cc2ccccc2)Oc2ccc(NC(=O)CCCCCC(=O)Nc3ccccc3N)cc2C1=O", "activity change, negative = inhibition": "inconclusive: -2.32%"}, {"smiles": "COc1cccc(CNC(=O)Cc2ccc(Br)cc2)c1", "Potency": "inconclusive: 18.4 µM [falling, partial curve]"}, {"smiles": "C/C=C/C=C/C(=O)O", "activity change, negative = inhibition": "inconclusive: 6.4%"}, {"smiles": "Cc1cc(Br)ccc1NC(=O)CN(C)C(=O)C1=COCCO1", "activity change, negative = inhibition": "inactive"}, {"smiles": "CCc1cccc(C)c1N=Cc1c(O)c2ccccc2oc1=O", "Potency": "inconclusive: 3.98 µM [falling, partial curve]"}, {"smiles": "C=C(C)COc1ccc2c(C)c(CC(=O)OC)c(=O)oc2c1C", "activity change, negative = inhibition": "inconclusive: 6.64%"}, {"smiles": "CCC(NC(=O)C1CCC1)c1ccccc1", "note": "(stereo unspecified)", "activity change, negative = inhibition": "inactive"}, {"smiles": "COCc1[nH]nc2c1C(c1ccnc3ccccc13)C(C#N)=C(N)O2", "note": "(stereo unspecified)", "activity change, negative = inhibition": "inconclusive: 6.32%"}, {"smiles": "COc1ccc(CN2CCN(Cc3ccccc3)C(CCO)C2)cc1OC", "note": "(stereo unspecified)", "activity change, negative = inhibition": "inactive"}, {"smiles": "Cc1ccc(C(=O)NNC(=O)c2cc(C)nc3ccccc23)cc1", "activity change, negative = inhibition": "inconclusive: 5.74%"}, {"smiles": "CCN(CC)C(=O)c1c2c(nc3ccccc13)-c1ccccc1CC2", "activity change, negative = inhibition": "inconclusive: -3.75%"}, {"smiles": "Oc1ccccc1N1CCN(c2ncnc3sc(-c4ccccc4)cc23)CC1", "activity change, negative = inhibition": "inconclusive: -0.681%"}, {"smiles": "CCN=c1sc(C(=O)OC)cc(=O)n1CC", "activity change, negative = inhibition": "inconclusive: -1.89%"}, {"smiles": "CN(C)C(=O)c1cc(Cl)ccc1Sc1cc(Cl)ccc1Cl", "activity change, negative = inhibition": "inconclusive: 15.9%"}, {"smiles": "COc1cc(-n2c(=O)c3ccccc3n(CC(=O)OCc3ccccc3)c2=O)cc(OC)c1OC", "activity change, negative = inhibition": "inconclusive: 12.8%"}, {"smiles": "COc1cccc(C(=O)N/N=C(\\C)CC(=O)Nc2ccc(N(C)C)cc2)c1", "Potency": "inconclusive: 15.8 µM [falling, partial curve]"}, {"smiles": "O=C(Cn1nc2sc3ccccc3n2c(=O)c1=O)c1cccs1", "activity change, negative = inhibition": "inconclusive: 2.84%"}, {"smiles": "CC1=C(C(=O)OC2CCCCC2)C(c2cccs2)n2c(nc3ccccc32)N1", "note": "(stereo unspecified)", "activity change, negative = inhibition": "inconclusive: -12.1%"}, {"smiles": "Cc1ccccc1C(=O)Nc1ccc2c(c1)C(=O)NC2=O", "Potency": "inconclusive: 8.91 µM [falling, partial curve]"}, {"smiles": "O=C(NNc1ccnc2cc(Cl)ccc12)C1CCCCC1", "activity change, negative = inhibition": "inconclusive: -0.948%"}]}]}
